This assay concerns the target T1, human LAG-3 ECD (antigen protein of the affinity test) (human) (UniProt P18627).
T1 sequence: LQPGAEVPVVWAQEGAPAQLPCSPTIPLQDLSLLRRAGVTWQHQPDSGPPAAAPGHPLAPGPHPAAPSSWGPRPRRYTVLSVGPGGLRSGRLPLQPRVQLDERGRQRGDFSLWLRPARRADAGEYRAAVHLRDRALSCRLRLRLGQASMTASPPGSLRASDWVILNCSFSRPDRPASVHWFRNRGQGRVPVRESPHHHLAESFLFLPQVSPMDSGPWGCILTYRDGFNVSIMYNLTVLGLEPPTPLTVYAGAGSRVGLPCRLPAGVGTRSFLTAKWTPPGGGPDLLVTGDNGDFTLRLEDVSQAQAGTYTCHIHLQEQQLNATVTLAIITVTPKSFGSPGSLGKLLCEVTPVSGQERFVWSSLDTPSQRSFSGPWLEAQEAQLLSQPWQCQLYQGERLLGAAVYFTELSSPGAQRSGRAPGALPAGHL
The assay can be described thus: SPR, antibody captured by anti-human Fc IgG on CM5. On the technique in general: Surface plasmon resonance follows binding to a sensor surface in real time, without labels.

Results are given in words; binding and its absence hold for the method and conditions named. Some entries that bind do so weakly or less than the wild type.

B1: 556F6B8-3 humanized antibody (antibody, V domains shown)
VH: QVQLQESGPGLVKPSETLSLTCTVSGFSLIKYGVHWIRQPPGKGLEWIGVIWRGGITDYNAAFMSRVTISKDTSKSQVSLKLSSVTAADTAVYYCARWDGPLAMDYWGQGTTVTVSS
VL: DIQLTQSPSFLSASVGDRVTITCKASQDVGTTVAWYQQKPGKAPKLLIYWASTRHTGVPSRFSGSGSGTEFTLTISSLQPEDFATYYCQQYSSYPYTFGQGTKLEIK
In the case of B1, the binding result is “binds”.

B2: 556F6B8-7 humanized antibody (antibody, V domains shown)
VH: QVQLQESGPGLVKPSETLSLTCTVSGFSLIKYGVHWIRQPPGKGLEWIGVIWRGGITDYNAAFMSRVTISKDTSKSQVSLKLSSVTAADTAVYYCARWDGPLAMDYWGQGTTVTVSS
VL: DIVLTQSPSFLSASVGDRVTITCKASQDVGTTVAWYQQKPGKAPKLLIYWASTRHTGVPSRFSGSGSGTEFTLTISSLQPEDFATYYCQQYSSYPYTFGQGTKLEIK
Take B2: the binding result was “binds”.

B3: 405B8H3-2 humanized antibody (antibody, V domains shown)
VH: QVQLVQSGAEVKKPGASVKVSCKASGYTFTDYEMHWVRQAPGQGLEWMGATDPETGNSAYNQKFKGRVTMTADKSTSTVYMELSSLRSEDTAVYYCISTGWNDWGQGTTVTVSS
VL: DIQMTQSPSSLSASVGDRVTITCKASQDINSYLSWFQQKPGKAPKSLIYRADRLLDGVPSRFSGSGSGTDFTLTISSLQPEDFATYYCLQYDEFPYTFGQGTKLEIK
For the molecule B3, the binding entry was “binds”.

B4: 405B8H3-6 humanized antibody (antibody, V domains shown)
VH: QVQLVQSGAEVKKPGASVKVSCKASGYTFTDYEMHWVRQAPGQGLEWMGATDPETGNSAYNQKFKGRVTMTADKSTSTVYMELSSLRSEDTAVYYCISTGWNDWGQGTTVTVSS
VL: DIQMTQSPSSLSASVGDRVTITCKASQDINSYLSWFQQKPGKAPKSLIYRADRLLDGVPSRFSGSGSGQDYTLTISSLQPEDFATYYCLQYDEFPYTFGQGTKLEIK
Consider B4, for which the binding entry is given as “binds”.

B5: 405B8H3-1 humanized antibody (antibody, V domains shown)
VH: QVQLVQSGAEVKKPGASVKVSCKASGYTFTDYEMHWVRQAPGQGLEWMGATDPETGNSAYNQKFKGRVTMTRDTSTSTVYMELSSLRSEDTAVYYCISTGWNDWGQGTTVTVSS
VL: DIQMTQSPSSLSASVGDRVTITCKASQDINSYLSWFQQKPGKAPKSLIYRADRLLDGVPSRFSGSGSGTDFTLTISSLQPEDFATYYCLQYDEFPYTFGQGTKLEIK
B5: the binding entry is on record as “binds”.

B6: 405B8H3-7 humanized antibody (antibody, V domains shown)
VH: QVQLVQSGAEVKKPGASVKVSCKASGYTFTDYEMHWVRQAPGQGLEWIGATDPETGNSAYNQKFKGRATMTADKSTSTAYMELSSLRSEDTAVYYCISTGWNDWGQGTTVTVSS
VL: DIQMTQSPSSLSASVGDRVTITCKASQDINSYLSWFQQKPGKAPKSLIYRADRLLDGVPSRFSGSGSGQDYTLTISSLQPEDFATYYCLQYDEFPYTFGQGTKLEIK
Turning to B6, the binding result is “binds”.

B7: 556F6B8 (LAG-3 mouse-human chimeric antibody) (antibody, V domains shown)
VH: RVQLKQSGPGLVQPSQSLSITCTVSGFSLIKYGVHWVRQSPGEGLEWLGVIWRGGITDYNAAFMSRLSITKDNSKSQVFFKMNSLQADDTAIYYCAKWDGPLAMDYWGQGTSVTVSS
VL: DIVMTQSHKFLSTSVGDRVSITCKASQDVGTTVAWYQQKPGQSPKLLIYWASTRHTGVPDRFTGSGSGTDFTLTISNVQSEDLADYFCQQYSSYPYTFGGGTKLEIK
notes: also called 556F8B8
Regarding B7, the binding entry is listed as “binds”.

B8: 105F1E10 (LAG-3 mouse-human chimeric antibody) (antibody, V domains shown)
VH: EVQLQQSGPELVKPGASVKMSCRASGYTFTDFKMHWMKQSHGKSLEWIGYIAPNNGGTAYNQKFRGKATLTVNESSNTAYMELRSLTSEDSAVYYCVDWDDVDYWGQGTTLTVSS
VL: DIKMTQSPSSMYASLGERVTITCKASQDINSYLSWFQQKSGKSPKTLIYRANRLVDGVPSRFSGSGSGQDYSLTISSLEYEDMGIYYCLQYVEFPLTFGAGTKLELK
On to B8, for which the binding result is recorded as “binds”.

B9: 405B8H3 (LAG-3 mouse-human chimeric antibody) (antibody, V domains shown)
VH: QVQLQQSGAELVRPGASVTLSCKASGYTFTDYEMHWVKQTPVHGLEWIGATDPETGNSAYNQKFKGKAIMTADKSSSTAYMELRSLTSEDSAVYYCISTGWNDWGQGTSLTVSS
VL: DIKMTQSPSSMYASLGERVTITCKASQDINSYLSWFQQKPGKSPKTLIYRADRLLDGVPSRFSGSGSGQDYSLTISSLEYGDMGIYYCLQYDEFPYTFGGGTKLEIK
notes: also called mouse-human chimeric antibody 405B8H3
As for B9, the binding entry was “binds”.

The values above are taken from patent US20210155689A1 (SHANGHAI PHARMAEXPLORER, published 2021).
